According to the supplement of paper PMC10849652:
This is one part of the list.

By UniProt entry, the sequences of proteins in these tests, tags left out. Where a name states a change or a piece, a line headed by the entry shows the natural chain unless it says otherwise.
UniProt P49589: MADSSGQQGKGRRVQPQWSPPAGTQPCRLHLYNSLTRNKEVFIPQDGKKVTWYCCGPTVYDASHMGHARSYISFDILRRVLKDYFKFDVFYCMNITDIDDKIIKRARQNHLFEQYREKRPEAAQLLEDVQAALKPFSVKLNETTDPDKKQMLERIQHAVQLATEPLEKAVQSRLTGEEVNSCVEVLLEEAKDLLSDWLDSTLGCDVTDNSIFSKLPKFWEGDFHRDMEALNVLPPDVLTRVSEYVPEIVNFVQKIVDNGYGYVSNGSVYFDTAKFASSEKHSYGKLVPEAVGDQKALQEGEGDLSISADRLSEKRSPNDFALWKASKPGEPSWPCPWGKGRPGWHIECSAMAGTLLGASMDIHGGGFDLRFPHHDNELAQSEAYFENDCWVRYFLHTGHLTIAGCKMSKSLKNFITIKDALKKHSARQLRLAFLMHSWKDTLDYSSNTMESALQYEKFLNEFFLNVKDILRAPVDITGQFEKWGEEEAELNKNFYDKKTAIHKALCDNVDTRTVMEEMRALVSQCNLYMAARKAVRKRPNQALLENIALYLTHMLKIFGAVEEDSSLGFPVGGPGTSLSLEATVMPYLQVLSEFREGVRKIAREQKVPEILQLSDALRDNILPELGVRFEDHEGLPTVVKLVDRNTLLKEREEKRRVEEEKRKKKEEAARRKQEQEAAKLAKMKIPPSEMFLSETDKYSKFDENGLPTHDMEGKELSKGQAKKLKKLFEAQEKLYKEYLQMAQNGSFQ
UniProt P16152: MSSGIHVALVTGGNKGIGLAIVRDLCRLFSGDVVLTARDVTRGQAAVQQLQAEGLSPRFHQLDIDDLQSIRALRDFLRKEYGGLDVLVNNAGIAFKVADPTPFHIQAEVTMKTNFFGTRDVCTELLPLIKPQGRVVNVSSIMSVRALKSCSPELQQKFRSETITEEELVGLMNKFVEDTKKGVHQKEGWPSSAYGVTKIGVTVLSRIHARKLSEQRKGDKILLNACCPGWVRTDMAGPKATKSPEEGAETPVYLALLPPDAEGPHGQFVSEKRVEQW
UniProt Q9NPF0: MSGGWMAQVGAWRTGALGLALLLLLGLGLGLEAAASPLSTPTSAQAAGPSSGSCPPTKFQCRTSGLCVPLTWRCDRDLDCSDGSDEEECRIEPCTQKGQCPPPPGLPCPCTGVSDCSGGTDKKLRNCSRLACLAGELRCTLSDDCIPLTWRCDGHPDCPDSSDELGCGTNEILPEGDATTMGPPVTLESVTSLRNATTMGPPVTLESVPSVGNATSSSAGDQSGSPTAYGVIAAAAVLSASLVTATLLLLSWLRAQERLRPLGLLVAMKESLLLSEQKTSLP
UniProt Q9Y3X0: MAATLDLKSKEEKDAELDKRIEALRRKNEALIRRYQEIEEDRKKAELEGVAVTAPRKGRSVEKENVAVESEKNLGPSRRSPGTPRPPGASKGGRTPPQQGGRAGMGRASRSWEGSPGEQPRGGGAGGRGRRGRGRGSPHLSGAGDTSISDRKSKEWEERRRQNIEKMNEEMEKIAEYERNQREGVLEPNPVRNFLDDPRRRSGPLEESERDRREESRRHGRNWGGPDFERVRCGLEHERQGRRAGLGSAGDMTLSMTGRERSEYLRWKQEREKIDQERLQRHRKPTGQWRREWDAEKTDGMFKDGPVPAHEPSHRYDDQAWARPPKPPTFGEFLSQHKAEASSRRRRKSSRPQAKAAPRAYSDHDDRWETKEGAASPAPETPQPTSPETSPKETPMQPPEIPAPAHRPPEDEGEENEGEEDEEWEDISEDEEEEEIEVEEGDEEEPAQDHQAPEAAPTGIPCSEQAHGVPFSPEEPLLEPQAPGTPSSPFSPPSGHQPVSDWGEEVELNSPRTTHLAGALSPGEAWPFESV
UniProt Q9ULG6: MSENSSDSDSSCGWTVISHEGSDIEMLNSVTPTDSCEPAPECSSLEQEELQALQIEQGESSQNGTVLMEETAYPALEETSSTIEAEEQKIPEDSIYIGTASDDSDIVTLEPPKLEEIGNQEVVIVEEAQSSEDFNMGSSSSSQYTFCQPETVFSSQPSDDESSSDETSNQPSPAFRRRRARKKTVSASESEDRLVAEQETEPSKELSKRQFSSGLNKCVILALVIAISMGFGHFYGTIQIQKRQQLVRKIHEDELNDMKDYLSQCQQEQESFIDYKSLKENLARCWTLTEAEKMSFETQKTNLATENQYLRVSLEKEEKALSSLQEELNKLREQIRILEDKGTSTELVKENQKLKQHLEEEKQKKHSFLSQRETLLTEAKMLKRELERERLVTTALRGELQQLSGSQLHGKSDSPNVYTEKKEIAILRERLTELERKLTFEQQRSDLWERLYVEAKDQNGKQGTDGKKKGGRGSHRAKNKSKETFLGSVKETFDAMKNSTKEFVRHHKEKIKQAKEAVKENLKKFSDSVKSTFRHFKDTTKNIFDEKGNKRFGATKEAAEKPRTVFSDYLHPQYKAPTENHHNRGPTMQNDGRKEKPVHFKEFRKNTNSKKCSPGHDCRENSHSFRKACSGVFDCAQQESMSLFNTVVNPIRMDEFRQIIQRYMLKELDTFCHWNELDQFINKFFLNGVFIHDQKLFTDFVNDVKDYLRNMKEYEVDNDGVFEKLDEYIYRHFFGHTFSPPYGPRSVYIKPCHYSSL
UniProt Q3V6T2: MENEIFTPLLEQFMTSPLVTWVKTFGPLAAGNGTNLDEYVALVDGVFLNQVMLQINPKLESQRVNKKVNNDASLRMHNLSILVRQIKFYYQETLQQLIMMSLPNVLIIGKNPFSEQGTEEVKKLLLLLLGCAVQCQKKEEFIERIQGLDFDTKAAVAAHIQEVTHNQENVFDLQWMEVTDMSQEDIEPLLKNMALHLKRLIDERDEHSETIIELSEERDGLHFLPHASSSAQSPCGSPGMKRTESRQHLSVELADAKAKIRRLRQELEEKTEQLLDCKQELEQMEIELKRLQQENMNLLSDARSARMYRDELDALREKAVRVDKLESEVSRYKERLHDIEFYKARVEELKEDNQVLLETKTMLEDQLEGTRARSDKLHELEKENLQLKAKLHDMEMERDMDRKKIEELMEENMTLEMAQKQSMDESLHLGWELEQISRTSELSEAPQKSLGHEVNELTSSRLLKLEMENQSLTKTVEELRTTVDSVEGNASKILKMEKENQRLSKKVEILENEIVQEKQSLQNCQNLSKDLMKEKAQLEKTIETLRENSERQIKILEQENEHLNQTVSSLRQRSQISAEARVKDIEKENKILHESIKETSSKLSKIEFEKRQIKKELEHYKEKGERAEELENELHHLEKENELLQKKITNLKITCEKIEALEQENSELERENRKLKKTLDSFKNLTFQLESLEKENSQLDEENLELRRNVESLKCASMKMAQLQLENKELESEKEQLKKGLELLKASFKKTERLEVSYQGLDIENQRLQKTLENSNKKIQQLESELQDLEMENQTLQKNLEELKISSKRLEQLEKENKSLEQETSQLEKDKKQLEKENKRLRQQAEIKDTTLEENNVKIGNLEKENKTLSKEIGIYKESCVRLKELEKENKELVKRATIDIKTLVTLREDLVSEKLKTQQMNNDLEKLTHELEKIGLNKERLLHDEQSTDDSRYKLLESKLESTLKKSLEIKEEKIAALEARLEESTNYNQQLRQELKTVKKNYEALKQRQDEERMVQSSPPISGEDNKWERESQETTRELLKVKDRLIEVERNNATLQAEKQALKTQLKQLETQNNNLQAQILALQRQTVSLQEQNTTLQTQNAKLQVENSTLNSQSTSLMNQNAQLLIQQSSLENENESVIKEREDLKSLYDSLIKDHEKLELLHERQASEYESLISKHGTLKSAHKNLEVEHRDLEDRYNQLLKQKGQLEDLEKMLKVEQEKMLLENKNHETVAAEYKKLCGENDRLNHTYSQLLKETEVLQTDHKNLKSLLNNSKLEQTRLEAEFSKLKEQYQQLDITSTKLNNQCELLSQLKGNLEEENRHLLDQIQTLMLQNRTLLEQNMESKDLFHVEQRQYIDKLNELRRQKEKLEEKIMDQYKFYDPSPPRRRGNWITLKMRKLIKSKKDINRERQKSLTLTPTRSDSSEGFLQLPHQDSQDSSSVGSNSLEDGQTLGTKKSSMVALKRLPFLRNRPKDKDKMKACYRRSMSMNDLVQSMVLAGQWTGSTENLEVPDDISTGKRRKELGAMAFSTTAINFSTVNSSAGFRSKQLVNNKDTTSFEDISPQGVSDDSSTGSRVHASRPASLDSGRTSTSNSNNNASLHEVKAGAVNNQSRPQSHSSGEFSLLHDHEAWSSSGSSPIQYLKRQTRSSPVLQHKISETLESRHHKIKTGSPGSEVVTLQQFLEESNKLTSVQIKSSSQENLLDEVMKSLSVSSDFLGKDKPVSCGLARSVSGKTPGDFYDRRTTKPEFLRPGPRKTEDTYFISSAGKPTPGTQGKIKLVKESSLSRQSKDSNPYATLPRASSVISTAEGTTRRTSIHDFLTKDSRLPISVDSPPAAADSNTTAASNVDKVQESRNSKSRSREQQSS
UniProt P55211: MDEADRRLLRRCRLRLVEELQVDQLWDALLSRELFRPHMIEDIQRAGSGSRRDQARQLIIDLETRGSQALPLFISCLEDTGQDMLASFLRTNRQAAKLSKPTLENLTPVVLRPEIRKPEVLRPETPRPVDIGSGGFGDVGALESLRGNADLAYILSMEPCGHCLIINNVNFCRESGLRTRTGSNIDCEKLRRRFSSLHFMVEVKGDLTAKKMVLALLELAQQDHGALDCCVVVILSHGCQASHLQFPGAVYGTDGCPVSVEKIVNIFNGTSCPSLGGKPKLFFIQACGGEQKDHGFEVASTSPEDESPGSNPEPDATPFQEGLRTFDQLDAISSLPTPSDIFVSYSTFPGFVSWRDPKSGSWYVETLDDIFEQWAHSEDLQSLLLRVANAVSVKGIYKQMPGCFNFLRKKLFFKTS
UniProt Q13951, whole entry, looked up: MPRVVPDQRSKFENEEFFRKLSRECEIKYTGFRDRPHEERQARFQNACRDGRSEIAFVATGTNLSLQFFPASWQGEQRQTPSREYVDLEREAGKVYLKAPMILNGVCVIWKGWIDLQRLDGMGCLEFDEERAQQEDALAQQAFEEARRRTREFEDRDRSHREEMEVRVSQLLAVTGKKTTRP
UniProt O75909: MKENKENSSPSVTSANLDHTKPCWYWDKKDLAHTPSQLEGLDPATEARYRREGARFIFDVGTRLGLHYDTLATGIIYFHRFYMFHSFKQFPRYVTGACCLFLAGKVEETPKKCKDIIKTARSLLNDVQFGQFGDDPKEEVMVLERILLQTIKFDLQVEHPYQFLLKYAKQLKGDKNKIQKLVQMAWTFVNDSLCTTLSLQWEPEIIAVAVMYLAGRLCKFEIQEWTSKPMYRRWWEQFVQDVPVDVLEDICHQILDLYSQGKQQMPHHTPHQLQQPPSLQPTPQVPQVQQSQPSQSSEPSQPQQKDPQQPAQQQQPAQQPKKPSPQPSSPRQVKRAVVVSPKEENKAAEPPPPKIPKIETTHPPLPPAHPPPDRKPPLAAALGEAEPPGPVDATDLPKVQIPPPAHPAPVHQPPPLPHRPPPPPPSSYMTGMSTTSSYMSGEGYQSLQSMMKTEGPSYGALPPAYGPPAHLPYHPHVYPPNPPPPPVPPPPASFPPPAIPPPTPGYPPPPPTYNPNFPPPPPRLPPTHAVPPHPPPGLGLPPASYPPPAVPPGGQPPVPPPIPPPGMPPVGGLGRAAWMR
UniProt Q6PII3: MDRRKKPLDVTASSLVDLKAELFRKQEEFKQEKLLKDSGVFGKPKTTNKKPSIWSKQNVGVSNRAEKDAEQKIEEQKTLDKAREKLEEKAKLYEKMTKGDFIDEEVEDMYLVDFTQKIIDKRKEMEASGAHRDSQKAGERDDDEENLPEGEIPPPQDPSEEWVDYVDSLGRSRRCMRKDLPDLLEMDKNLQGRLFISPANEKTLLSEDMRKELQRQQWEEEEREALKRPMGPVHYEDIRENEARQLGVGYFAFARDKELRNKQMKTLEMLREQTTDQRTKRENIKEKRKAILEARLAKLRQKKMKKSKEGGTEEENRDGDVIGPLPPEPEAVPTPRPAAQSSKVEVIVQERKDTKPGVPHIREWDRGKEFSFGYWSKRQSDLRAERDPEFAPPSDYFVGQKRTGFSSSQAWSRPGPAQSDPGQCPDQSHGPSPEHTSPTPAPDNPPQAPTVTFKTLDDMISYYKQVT
UniProt P13987: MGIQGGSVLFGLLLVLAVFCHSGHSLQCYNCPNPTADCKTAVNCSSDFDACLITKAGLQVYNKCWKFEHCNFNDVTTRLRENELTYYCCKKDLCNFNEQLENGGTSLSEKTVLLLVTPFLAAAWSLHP
UniProt Q08722, whole entry, looked up: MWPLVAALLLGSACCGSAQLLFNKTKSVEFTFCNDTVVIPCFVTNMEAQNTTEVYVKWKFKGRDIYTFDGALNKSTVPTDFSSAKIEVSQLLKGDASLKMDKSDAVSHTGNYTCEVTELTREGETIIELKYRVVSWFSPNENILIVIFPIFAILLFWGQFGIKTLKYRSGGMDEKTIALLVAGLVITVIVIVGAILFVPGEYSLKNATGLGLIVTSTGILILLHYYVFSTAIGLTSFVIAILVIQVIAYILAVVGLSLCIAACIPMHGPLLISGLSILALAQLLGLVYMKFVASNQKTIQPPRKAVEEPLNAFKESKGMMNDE

Key:
Test in all cases: log2 fold change, soluble protein after heating vs DMSO (PISA); higher = thermal stabilisation; K562 lysate, 10 uM; active = over 0.2 and 3.5 SD of the protein, either way, in both replicates (recomputed)
[1] = compound: CS(=O)(=O)CCNCc1ccc(-c2ccc3ncnc(Nc4ccc(OCc5cccc(F)c5)c(Cl)c4)c3c2)o1 [lapatinib]
Summary of the method: (§1)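 Following dounce homogenisation of K562 pellets in PBS pH 7.4 with 1 mM MgCl2, crude extract at 1 mg/mL protein was incubated for 30 min with 10 μM compound. Aliquots were then heated for 3 min over 48°C-58°C and pooled, NP-40 was added to 0.5% at 4°C, and soluble protein was recovered as the supernatant at 21,000xg for 90 min. Channel-sum-equalised TMTpro 16plex LC-MS/MS quantified this protein. Each value, from duplicates, is a log-two fold change in thermal stability relative to solvent controls.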

[2] = compound: CS(=O)(=O)N1CCN(Cc2cc3nc(-c4cccc5[nH]ncc45)nc(N4CCOCC4)c3s2)CC1 [pictilisib]
Summary of the method: as §1

[3] = compound: C[C@@H](Oc1cc(-c2cnn(C3CCNCC3)c2)cnc1N)c1c(Cl)ccc(F)c1Cl [crizotinib]
Summary of the method: as §1

[4] = compound: C[C@H](C1=CC=C(C=C1)C(=O)NC2=C3C=CNC3=NC=C2)N
Summary of the method: as §1

[5] = compound: C[C@H](Nc1ncnc2nc[nH]c12)c1cc2cccc(Cl)c2c(=O)n1-c1ccccc1 [duvelisib]
Summary of the method: as §1

[6] = compound: Cc1cc(Nc2cc(CN3CCOCC3)c3nc(C)c(Cc4ccc(Cl)cc4F)n3n2)n[nH]1 [gandotinib]
Summary of the method: as §1

[7] = compound: Cc1cc(Nc2cc(N3CCN(C)CC3)nc(Sc3ccc(NC(=O)C4CC4)cc3)n2)n[nH]1 [tozasertib]
Summary of the method: as §1

[8] = compound: Cc1ccc(-n2nc(C(C)(C)C)cc2NC(=O)Nc2ccc(OCCN3CCOCC3)c3ccccc23)cc1 [doramapimod]
Summary of the method: as §1

[9] = compound: Cc1ccc(NC(=O)c2ccc(CN3CC[C@H](N(C)C)C3)c(C(F)(F)F)c2)cc1Nc1nccc(-c2cncnc2)n1 [bafetinib]
Summary of the method: as §1

[10] = compound: Cc1cccc(CC(=O)N2CCc3c2ccc(-c2cn(C)c4ncnc(N)c24)c3F)n1
Summary of the method: as §1

[11] = compound: Cc1cn(-c2cc(NC(=O)c3ccc(C)c(Nc4nccc(-c5cccnc5)n4)c3)cc(C(F)(F)F)c2)cn1 [nilotinib]
Summary of the method: as §1

[12] = compound: Cc1nc(Nc2n[nH]c3c2CN(C(=O)N[C@H](CN(C)C)c2ccccc2)C3(C)C)c2sccc2n1
Summary of the method: as §1

[13] = compound: Cc1nc(Nc2ncc(C(=O)Nc3c(C)cccc3Cl)s2)cc(N2CCN(CCO)CC2)n1 [dasatinib]
Summary of the method: as §1

[14] = compound: Cc1ncc(-c2ccnc(Nc3ccc(S(C)(=O)=O)cc3)n2)n1C(C)C
Summary of the method: as §1

[15] = compound: Cn1cc(-c2ccc3c(c2)CCN3C(=O)Cc2cccc(C(F)(F)F)c2)c2c(N)ncnc21
Summary of the method: as §1

[16] = compound: Cn1cc(CNCC2CCN(c3ncc(C(=O)NO)cn3)CC2)c2ccccc21 [quisinostat]
Summary of the method: as §1

[17] = compound: Cn1cncc1[C@@](N)(c1ccc(Cl)cc1)c1ccc2c(c1)c(-c1cccc(Cl)c1)cc(=O)n2C [tipifarnib]
Summary of the method: as §1

[18] = compound: NC(=O)Nc1cc(-c2cccc(F)c2)sc1C(=O)N[C@H]1CCCNC1
Summary of the method: as §1

[19] = compound: NC(=O)c1cnc(N[C@@H]2CCCC[C@@H]2N)nc1Nc1cccc(-n2nccn2)c1
Summary of the method: as §1

[20] = compound: NC1(c2ccc(-c3nc4ccn5c(=O)[nH]nc5c4cc3-c3ccccc3)cc2)CCC1
Summary of the method: as §1

Target	log2 fold change [1]	log2 fold change [2]	log2 fold change [3]	log2 fold change [4]	log2 fold change [5]	log2 fold change [6]	log2 fold change [7]	log2 fold change [8]	log2 fold change [9]	log2 fold change [10]	log2 fold change [11]	log2 fold change [12]	log2 fold change [13]	log2 fold change [14]	log2 fold change [15]	log2 fold change [16]	log2 fold change [17]	log2 fold change [18]	log2 fold change [19]	log2 fold change [20]
CBX4 (UniProt O00257)	inactive: 0.013	inactive: -0.247	inactive: -0.055	inactive: 0.123	inactive: 0.038	inactive: 0.04	inactive: -0.119	inactive: 0.064	inactive: -0.269	inactive: 0.059	inactive: -0.06	inactive: 0.206	inactive: -0.04	inactive: 0.041	inactive: 0.022	inactive: -0.075	inactive: 0.02	inactive: 0.002	inactive: 0.01	inactive: -0.074
CARS isoform 3 (UniProt P49589)	inactive: -0.006	inactive: -0.006	inactive: 0.019	inactive: 0.003	inactive: -0.015	inactive: -0.045	inactive: 0.014	inactive: 0.014	inactive: -0.008	inactive: -0.011	inactive: -0.019	inactive: -0.007	inactive: -0.024	inactive: -0.007	inactive: 0.012	inactive: 0.048	inactive: 0.007	inactive: 0.004	inactive: 0.001	inactive: -0.01
CBR1 (UniProt P16152)	inactive: 0.023	inactive: -0.027	inactive: 0.043	inactive: -0.082	inactive: -0.037	inactive: 0.001	inactive: 0.003	inactive: -0.044	inactive: 0.034	inactive: 0.032	inactive: 0.046	inactive: 0.046	inactive: 0.1	inactive: 0.076	inactive: -0.02	inactive: 0.113	inactive: -0.001	inactive: -0.021	inactive: -0.02	inactive: 0.016
CD320 (UniProt Q9NPF0)	inactive: 0.017	inactive: -0.003	inactive: 0.012	inactive: -0.083	inactive: 0.064	inactive: 0.034	inactive: 0.039	inactive: 0.012	inactive: 0.08	inactive: 0.077	inactive: -0.046	inactive: 0.036	inactive: -0.025	inactive: 0.061	inactive: 0.001	inactive: 0.076	inactive: -0.07	inactive: 0.016	inactive: 0.019	inactive: -0.047
CBL (UniProt P22681)	inactive: -0.017	inactive: -0.019	inactive: 0.026	inactive: 0.031	inactive: -0.03	inactive: 0.06	inactive: -0.035	inactive: -0.046	inactive: -0.026	inactive: -0.065	inactive: 0.015	inactive: -0.005	inactive: 0.012	inactive: -0.015	inactive: -0.006	inactive: 0.061	inactive: -0.022	inactive: -0.006	inactive: 0.003	inactive: 0.002
CCDC9 (UniProt Q9Y3X0)	inactive: 0.034	inactive: 0.037	inactive: 0.019	inactive: 0.009	inactive: -0.011	inactive: 0.015	inactive: -0.029	inactive: 0.004	inactive: 0.008	inactive: -0.015	inactive: -0.014	inactive: -0.047	inactive: 0.007	inactive: 0.011	inactive: -0.006	inactive: -0.01	inactive: 0.05	inactive: -0.006	inactive: 0.003	inactive: 0.041
CCPG1 isoform 5 (UniProt Q9ULG6)	inactive: 0.114	inactive: -0.038	inactive: 0.006	inactive: -0.036	inactive: 0.006	inactive: -0.089	inactive: -0.021	inactive: 0.036	inactive: 0.035	inactive: 0.108	inactive: 0.067	inactive: 0.017	inactive: 0.013	inactive: 0.087	inactive: 0.004	inactive: -0.021	inactive: -0.033	inactive: 0.029	inactive: 0	inactive: -0.073
CCDC88A (UniProt Q3V6T2)	inactive: -0.02	inactive: -0.021	inactive: -0.006	inactive: -0.002	inactive: 0.032	inactive: -0.038	inactive: 0.002	inactive: 0.041	inactive: -0.023	inactive: 0.045	inactive: -0.046	inactive: 0.043	inactive: 0.021	inactive: -0.024	inactive: 0.039	inactive: -0.041	inactive: -0.017	inactive: 0.031	inactive: 0.042	inactive: 0.014
CASP9 (UniProt P55211)	inactive: 0.003	inactive: 0.011	inactive: -0.047	inactive: -0.036	inactive: 0.036	inactive: -0.027	inactive: 0.017	inactive: 0.009	inactive: -0.069	inactive: 0.082	inactive: -0.004	inactive: 0.006	inactive: -0.055	inactive: -0.012	inactive: -0.013	inactive: -0.056	inactive: 0.005	inactive: 0.056	inactive: -0.011	inactive: 0.007
CBFB isoform 2 (UniProt Q13951)	inactive: -0.014	inactive: 0.003	inactive: 0.098	inactive: -0.112	inactive: -0.002	inactive: 0.082	inactive: 0.062	inactive: 0.012	inactive: 0.051	inactive: 0.094	inactive: 0.009	inactive: 0.036	inactive: -0.01	inactive: 0.062	inactive: 0.019	inactive: 0.073	inactive: -0.007	inactive: -0.001	inactive: 0.004	inactive: 0.037
CCNK isoform 4 (UniProt O75909)	inactive: 0.001	inactive: 0.013	inactive: -0.008	active: -0.213	inactive: 0.044	inactive: 0.161	inactive: -0.023	inactive: 0.113	inactive: -0.051	inactive: 0.109	inactive: 0.011	inactive: -0.03	inactive: -0.051	inactive: -0.009	inactive: 0.003	inactive: 0.009	inactive: -0.004	inactive: -0.006	inactive: -0.005	inactive: -0.011
CCNB2 (UniProt O95067)	inactive: -0.048	inactive: -0.091	inactive: -0.018	inactive: -0.016	inactive: 0.032	inactive: -0.108	inactive: 0.023	inactive: 0.009	inactive: -0.035	inactive: 0.068	inactive: -0.053	inactive: 0.081	inactive: -0.016	active: 0.21	inactive: -0.046	inactive: -0.081	inactive: -0.029	inactive: 0.012	inactive: -0.038	inactive: 0
CCDC174 (UniProt Q6PII3)	inactive: 0.059	inactive: -0.007	inactive: 0.051	inactive: -0.021	inactive: -0.004	inactive: 0.043	inactive: -0.024	inactive: 0.014	inactive: 0.039	inactive: -0.065	inactive: -0.024	inactive: 0.035	inactive: 0.012	inactive: -0.037	inactive: -0.034	inactive: -0.051	inactive: -0.026	inactive: -0.005	inactive: -0.001	inactive: 0.022
CD59 isoform 2 (UniProt P13987)	inactive: -0.037	inactive: 0.039	inactive: 0.03	inactive: -0.026	inactive: 0.053	inactive: 0.054	inactive: 0.011	inactive: 0.002	inactive: 0.127	inactive: 0.023	inactive: -0.106	inactive: -0.084	inactive: 0.046	inactive: -0.194	inactive: 0.037	inactive: -0.107	inactive: -0.038	inactive: 0	inactive: -0.002	inactive: 0.031
CD47 (UniProt Q08722)	inactive: -0.001	inactive: 0.036	inactive: 0.004	inactive: -0.123	inactive: 0.016	inactive: 0.064	inactive: -0.008	inactive: 0.001	inactive: -0.056	inactive: 0.023	inactive: -0.01	inactive: -0.036	inactive: 0.031	inactive: 0	inactive: 0.029	inactive: -0.067	inactive: -0.001	inactive: 0	inactive: -0.002	inactive: 0.018

Single records, from the list above. Order of values: log2 fold change [1] | log2 fold change [2] | log2 fold change [3] | log2 fold change [4] | log2 fold change [5] | log2 fold change [6] | log2 fold change [7] | log2 fold change [8] | log2 fold change [9] | log2 fold change [10] | log2 fold change [11] | log2 fold change [12] | log2 fold change [13] | log2 fold change [14] | log2 fold change [15] | log2 fold change [16] | log2 fold change [17] | log2 fold change [18] | log2 fold change [19] | log2 fold change [20]
CASP9 (UniProt P55211) in the list: inactive: 0.003 | inactive: 0.011 | inactive: -0.047 | inactive: -0.036 | inactive: 0.036 | inactive: -0.027 | inactive: 0.017 | inactive: 0.009 | inactive: -0.069 | inactive: 0.082 | inactive: -0.004 | inactive: 0.006 | inactive: -0.055 | inactive: -0.012 | inactive: -0.013 | inactive: -0.056 | inactive: 0.005 | inactive: 0.056 | inactive: -0.011 | inactive: 0.007
CCPG1 isoform 5 (UniProt Q9ULG6) in the list: inactive: 0.114 | inactive: -0.038 | inactive: 0.006 | inactive: -0.036 | inactive: 0.006 | inactive: -0.089 | inactive: -0.021 | inactive: 0.036 | inactive: 0.035 | inactive: 0.108 | inactive: 0.067 | inactive: 0.017 | inactive: 0.013 | inactive: 0.087 | inactive: 0.004 | inactive: -0.021 | inactive: -0.033 | inactive: 0.029 | inactive: 0 | inactive: -0.073
